No constants are given. Whether binding was seen depends on the method and setting. In cells and extracts the contact can be indirect. Some entries that bind do so weakly or less than the wild type. Each block holds one substance with its values, some of them ahead of it.
Tests used:
[1] = molecular target: SUMO1 (human (endogenous in primary LF cells)) (UniProt P63165); experiment: co-IP; reverse Co-IP: LF cell lysate, SUMO1 precipitated, Gli1 detected by immunoblot (Figure 3G)
[2] = molecular target: Flag-SUMO1 (UniProt P63165); experiment: co-IP; lysate of HEK 293T cells transfected with Myc-Gli1 and Flag-SUMO1, immunoprecipitated with anti-Flag, immunoblotted with anti-Flag and anti-Myc (Figure 3H)
[3] = molecular target: Gli1 (human (endogenous in primary LF cells)) (UniProt P08151); experiment: co-IP; LF cell lysate, Gli1 precipitated, SUMO1 detected by immunoblot (Figure 3F)

By UniProt entry, the sequences of proteins in these tests, tags left out. Residues count along the entry.
UniProt P63165, residues 1-97: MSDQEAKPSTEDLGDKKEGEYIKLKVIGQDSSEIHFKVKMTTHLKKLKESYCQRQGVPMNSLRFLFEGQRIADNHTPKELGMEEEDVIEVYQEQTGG
UniProt P08151: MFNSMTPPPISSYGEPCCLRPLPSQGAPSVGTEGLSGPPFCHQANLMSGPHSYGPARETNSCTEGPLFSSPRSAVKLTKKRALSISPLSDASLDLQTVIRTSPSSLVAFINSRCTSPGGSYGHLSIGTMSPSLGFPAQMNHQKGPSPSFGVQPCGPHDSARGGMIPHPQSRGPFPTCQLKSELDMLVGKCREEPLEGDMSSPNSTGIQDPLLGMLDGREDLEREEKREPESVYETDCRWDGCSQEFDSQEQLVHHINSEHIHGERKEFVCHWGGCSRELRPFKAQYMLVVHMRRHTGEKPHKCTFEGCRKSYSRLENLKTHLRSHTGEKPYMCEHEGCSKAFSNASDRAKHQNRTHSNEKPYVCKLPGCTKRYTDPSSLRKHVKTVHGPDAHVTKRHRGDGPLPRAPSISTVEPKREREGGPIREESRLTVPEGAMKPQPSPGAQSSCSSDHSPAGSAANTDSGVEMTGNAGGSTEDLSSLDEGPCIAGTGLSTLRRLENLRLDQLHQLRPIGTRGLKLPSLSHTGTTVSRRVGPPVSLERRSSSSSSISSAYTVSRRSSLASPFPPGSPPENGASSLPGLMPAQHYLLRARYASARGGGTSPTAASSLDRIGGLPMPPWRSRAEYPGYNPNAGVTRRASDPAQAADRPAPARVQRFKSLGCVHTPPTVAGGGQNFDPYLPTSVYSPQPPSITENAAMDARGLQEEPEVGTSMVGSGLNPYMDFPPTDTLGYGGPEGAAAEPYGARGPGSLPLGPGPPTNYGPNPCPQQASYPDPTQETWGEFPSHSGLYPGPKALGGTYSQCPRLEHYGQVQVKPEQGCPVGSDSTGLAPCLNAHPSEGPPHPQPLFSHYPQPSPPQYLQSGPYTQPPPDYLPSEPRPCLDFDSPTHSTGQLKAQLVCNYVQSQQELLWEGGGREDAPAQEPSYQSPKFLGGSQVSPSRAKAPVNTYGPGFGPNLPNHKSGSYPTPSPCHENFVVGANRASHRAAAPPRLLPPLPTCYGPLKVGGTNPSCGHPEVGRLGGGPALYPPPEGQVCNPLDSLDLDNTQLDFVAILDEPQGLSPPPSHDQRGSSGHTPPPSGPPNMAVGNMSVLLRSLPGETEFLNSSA

binding [1]: binds
Substance: Gli1 (from UniProt P08151 1-1106)

binding [2]: binds
Substance: Myc-Gli1 (from UniProt P08151 1-1106)

binding [3]: binds
Substance: SUMO1 (from UniProt P63165 1-97)

Source: publication PMC11362830
